These are yes or no findings as the source states them, for the method shown. In cells and extracts the contact can be indirect. Some results given as binding are weak or reduced against the parent protein; the word gives no strength.

We go through 1 molecule from PMC3565087.

In this experiment the target is T1, Phosphoglycerate dehydrogenase (human (endogenous in U87 and U251)) (UniProt O43175).
T1 sequence: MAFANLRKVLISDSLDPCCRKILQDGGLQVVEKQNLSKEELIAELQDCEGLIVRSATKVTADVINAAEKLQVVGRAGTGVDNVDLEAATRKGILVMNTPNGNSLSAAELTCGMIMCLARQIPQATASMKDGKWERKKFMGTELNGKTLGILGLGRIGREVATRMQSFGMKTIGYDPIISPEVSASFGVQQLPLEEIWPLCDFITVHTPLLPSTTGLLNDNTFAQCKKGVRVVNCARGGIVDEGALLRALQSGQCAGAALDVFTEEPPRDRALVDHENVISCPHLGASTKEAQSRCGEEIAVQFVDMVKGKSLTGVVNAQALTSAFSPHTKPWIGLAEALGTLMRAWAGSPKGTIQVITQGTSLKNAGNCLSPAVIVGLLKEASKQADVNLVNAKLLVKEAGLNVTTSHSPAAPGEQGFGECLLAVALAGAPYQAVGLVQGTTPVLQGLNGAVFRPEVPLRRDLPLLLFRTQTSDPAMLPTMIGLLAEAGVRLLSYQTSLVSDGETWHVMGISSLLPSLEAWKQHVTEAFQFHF
Nature of the experiment: co-IP; endogenous proteins in U87 and U251 cells; anti-PHGDH or anti-FOXM1 antibody; lysis in 62.5 mmol/L Tris-HCl (pH 6.8), 10 % glycerol; overnight with antibody, agarose A/G beads.

B1: forkhead box M1 (protein, UniProt Q08050 1-763)
chain: MKTSPRRPLILKRRRLPLPVQNAPSETSEEEPKRSPAQQESNQAEASKEVAESNSCKFPAGIKIINHPTMPNTQVVAIPNNANIHSIITALTAKGKESGSSGPNKFILISCGGAPTQPPGLRPQTQTSYDAKRTEVTLETLGPKPAARDVNLPRPPGALCEQKRETCADGEAAGCTINNSLSNIQWLRKMSSDGLGSRSIKQEMEEKENCHLEQRQVKVEEPSRPSASWQNSVSERPPYSYMAMIQFAINSTERKRMTLKDIYTWIEDHFPYFKHIAKPGWKNSIRHNLSLHDMFVRETSANGKVSFWTIHPSANRYLTLDQVFKPLDPGSPQLPEHLESQQKRPNPELRRNMTIKTELPLGARRKMKPLLPRVSSYLVPIQFPVNQSLVLQPSVKVPLPLAASLMSSELARHSKRVRIAPKVLLAEEGIAPLSSAGPGKEEKLLFGEGFSPLLPVQTIKEEEIQPGEEMPHLARPIKVESPPLEEWPSPAPSFKEESSHSWEDSSQSPTPRPKKSYSGLRSPTRCVSEMLVIQHRERRERSRSRRKQHLLPPCVDEPELLFSEGPSTSRWAAELPFPADSSDPASQLSYSQEVGGPFKTPIKETLPISSTPSKSVLPRTPESWRLTPPAKVGGLDFSPVQTSQGASDPLPDPLGLMDLSTTPLQSAPPLESPQRLLSSEPLDLISVPFGNSSPSDIDVPKPGSPEPQVSGLAANRSLTEGLVLDTMNDSLSKILLDISFPGLDEDPLGPDNINWSQFIPELQ
Turning to B1, the binding result is reported as “binds”.
